For part of these data: Results from cells or extracts need not show a direct contact. For part of these data: For at least one entry, the source does not settle the construct or the ends of the probe.
What was measured:
[1] = tested on: Ikaros Ik-2 (expression library clone) (Mus musculus); test: binding assay; settings: southwestern library screen; isolated Ikaros clone; protein in a lysate after overexpression; label: radiolabeled
Ikaros (GST fusion) = Ikaros (GST fusion) (UniProt Q03267); test: EMSA; settings: described as high affinity Ikaros site; 0.5 ug protein; purified recombinant protein; protein details: GST
[2] = molecular target: Ikaros (native complexes in thymus/spleen nuclear extract) (Mus musculus) (UniProt Q03267); test: EMSA; settings: four complexes in wild-type thymus and spleen extract; absent in Ikaros -/- spleen; abrogated by Ikaros antibody; protein in an extract; label: end-labeled

Chains of the proteins cited; added tags and fusions are not shown. Chains listed by the source or under a name are the forms on record and can include a tag or linker.
UniProt Q03267, other isoform, or with tags, fused parts or gaps: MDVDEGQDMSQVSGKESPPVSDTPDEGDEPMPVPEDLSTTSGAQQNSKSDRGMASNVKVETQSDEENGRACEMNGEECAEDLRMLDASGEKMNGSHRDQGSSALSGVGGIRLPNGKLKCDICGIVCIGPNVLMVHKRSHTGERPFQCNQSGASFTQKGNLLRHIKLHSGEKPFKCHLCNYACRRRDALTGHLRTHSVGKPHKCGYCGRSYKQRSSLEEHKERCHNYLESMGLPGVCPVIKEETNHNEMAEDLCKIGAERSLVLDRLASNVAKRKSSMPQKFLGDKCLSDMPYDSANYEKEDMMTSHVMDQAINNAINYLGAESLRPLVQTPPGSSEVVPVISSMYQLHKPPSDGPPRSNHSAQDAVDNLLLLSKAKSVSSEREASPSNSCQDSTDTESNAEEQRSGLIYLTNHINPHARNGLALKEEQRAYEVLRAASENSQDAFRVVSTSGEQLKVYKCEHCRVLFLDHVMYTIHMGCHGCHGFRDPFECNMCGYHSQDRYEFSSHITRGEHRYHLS
Ikaros Ik-2 (expression library clone) (Mus musculus), one chain, as listed by the source: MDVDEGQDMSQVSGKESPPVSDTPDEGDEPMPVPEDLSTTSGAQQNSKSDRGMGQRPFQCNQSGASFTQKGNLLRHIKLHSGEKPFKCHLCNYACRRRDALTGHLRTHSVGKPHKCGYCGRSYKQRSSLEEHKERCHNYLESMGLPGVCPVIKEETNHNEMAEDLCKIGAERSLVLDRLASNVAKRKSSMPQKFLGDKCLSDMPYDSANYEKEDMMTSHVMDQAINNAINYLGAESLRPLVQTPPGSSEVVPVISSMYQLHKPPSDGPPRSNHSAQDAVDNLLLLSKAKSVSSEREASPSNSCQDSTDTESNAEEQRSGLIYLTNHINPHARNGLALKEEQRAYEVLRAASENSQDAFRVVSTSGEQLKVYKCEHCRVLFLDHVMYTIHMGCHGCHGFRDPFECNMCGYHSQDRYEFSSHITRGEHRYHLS

Sequence: AGAAGTTTCCATAAGATGATGAATGGGGGTGGCAGAGA (double strand) [CD3 delta enhancer element (multimerized)]
- binding result [1]: binds

Sequence: TCAGCTTTTGGGAATACCCTGTCA (double strand) [IkBS1]
- binding result (Ikaros (GST fusion)): binds

Sequence: TCAGCTTTTGGGAATGTATTCCCTGTCA (double strand) [IK-BS4]
- binding result [2]: binds
